Measured values published in PMC6825199.
No constants are given. Whether binding was seen depends on the method and setting. In cells and extracts the contact can be indirect. Some results given as binding are weak or reduced against the parent protein; the word gives no strength. Where a sequence is shown, tags or fusion partners need not be part of it.

Sequences of proteins named here, by UniProt entry; tags and fusion partners are left off. A change or cut given only in a name is not applied to a line headed by its entry.
UniProt Q17551: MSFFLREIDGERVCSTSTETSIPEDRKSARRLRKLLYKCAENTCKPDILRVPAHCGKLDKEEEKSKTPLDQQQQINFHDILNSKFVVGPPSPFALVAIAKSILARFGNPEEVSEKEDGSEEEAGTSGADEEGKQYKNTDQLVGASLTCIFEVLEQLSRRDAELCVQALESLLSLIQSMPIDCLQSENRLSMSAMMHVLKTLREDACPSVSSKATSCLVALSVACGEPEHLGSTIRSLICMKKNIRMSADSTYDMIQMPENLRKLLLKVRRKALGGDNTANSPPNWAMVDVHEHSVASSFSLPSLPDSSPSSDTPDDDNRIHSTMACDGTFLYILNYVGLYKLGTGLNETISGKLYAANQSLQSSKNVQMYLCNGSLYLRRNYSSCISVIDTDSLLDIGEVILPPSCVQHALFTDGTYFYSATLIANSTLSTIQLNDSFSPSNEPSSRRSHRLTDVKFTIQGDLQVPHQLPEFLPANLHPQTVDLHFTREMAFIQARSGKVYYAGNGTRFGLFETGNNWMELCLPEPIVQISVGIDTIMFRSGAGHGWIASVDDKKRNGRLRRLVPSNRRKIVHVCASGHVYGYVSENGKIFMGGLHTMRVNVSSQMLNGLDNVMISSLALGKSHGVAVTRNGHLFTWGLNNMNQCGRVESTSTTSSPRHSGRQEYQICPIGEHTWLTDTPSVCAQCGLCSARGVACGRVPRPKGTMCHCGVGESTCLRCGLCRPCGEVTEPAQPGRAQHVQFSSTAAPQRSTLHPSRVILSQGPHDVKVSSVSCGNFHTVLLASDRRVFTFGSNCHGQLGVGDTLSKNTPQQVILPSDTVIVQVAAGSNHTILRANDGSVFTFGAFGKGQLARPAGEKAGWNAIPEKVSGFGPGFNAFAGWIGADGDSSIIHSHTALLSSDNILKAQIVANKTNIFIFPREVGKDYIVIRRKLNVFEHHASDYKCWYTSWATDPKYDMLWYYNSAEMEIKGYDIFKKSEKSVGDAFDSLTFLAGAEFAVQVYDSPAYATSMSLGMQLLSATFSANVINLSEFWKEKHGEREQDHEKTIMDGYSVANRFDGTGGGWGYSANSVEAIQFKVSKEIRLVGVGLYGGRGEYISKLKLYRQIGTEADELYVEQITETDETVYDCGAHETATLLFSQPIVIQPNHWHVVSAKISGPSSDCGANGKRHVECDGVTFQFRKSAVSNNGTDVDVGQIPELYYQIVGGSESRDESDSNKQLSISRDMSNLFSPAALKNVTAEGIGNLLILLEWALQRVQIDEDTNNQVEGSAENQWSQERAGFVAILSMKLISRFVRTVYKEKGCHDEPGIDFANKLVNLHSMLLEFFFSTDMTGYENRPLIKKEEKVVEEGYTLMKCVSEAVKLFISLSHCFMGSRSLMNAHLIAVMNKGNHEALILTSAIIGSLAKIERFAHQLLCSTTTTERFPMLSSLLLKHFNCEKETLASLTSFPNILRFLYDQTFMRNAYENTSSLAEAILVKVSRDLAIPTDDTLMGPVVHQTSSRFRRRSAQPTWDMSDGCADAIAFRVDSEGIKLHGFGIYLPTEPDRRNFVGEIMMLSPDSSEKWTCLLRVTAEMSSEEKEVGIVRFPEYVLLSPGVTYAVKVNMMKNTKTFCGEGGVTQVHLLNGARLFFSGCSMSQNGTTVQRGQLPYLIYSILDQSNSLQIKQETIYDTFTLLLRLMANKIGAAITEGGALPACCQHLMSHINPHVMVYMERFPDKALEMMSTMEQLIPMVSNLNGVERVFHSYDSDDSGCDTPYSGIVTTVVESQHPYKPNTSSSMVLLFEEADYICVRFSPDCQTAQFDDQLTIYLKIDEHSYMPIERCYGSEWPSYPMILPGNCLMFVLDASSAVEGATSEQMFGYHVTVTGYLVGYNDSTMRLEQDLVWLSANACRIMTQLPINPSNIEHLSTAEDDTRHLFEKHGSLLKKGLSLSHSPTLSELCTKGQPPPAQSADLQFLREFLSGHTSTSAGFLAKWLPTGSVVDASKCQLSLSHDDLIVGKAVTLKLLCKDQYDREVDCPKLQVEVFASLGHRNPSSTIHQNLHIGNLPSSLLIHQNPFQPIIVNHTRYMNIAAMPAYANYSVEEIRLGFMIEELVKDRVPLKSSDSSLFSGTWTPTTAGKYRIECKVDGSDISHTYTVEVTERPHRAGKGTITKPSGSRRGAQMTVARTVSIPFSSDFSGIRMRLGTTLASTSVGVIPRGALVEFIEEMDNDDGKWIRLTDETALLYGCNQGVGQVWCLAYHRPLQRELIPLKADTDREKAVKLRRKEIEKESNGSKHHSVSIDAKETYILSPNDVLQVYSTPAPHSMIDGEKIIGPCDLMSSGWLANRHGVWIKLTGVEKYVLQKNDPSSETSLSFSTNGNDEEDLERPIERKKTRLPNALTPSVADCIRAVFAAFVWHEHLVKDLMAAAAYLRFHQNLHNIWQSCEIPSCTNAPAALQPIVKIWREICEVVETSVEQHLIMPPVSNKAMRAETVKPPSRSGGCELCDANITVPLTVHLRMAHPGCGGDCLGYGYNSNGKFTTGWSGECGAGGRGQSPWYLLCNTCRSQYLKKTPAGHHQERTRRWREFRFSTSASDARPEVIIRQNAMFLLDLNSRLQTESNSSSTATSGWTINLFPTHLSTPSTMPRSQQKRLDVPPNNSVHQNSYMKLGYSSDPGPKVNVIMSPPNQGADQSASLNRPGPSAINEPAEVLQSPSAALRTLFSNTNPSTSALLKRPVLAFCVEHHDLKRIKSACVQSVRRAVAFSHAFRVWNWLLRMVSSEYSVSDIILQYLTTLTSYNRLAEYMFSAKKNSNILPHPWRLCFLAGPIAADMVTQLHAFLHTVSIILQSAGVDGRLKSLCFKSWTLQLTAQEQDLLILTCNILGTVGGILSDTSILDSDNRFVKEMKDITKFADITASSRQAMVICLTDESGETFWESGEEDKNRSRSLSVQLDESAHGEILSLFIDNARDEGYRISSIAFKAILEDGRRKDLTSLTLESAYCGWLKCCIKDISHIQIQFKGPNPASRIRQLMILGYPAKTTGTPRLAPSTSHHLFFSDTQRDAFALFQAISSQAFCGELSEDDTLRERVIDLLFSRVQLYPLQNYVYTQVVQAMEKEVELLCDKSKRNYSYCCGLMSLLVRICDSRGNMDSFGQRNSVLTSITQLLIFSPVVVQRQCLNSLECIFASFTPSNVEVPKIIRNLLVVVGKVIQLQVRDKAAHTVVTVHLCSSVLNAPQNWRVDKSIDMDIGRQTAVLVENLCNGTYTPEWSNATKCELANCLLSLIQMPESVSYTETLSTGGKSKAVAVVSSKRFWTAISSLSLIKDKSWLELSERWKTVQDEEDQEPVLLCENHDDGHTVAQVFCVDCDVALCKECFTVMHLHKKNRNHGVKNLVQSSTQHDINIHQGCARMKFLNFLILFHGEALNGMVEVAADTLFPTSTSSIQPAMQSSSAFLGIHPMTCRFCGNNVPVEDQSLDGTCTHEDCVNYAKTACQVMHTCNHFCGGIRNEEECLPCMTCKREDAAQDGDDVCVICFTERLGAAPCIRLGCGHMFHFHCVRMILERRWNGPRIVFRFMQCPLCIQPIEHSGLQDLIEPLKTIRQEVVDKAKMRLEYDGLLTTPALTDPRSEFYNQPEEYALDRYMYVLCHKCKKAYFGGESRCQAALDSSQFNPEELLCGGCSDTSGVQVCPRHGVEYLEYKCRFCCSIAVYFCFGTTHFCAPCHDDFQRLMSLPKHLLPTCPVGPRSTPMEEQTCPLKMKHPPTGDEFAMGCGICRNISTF

Biological target: T1, 3xFLAG::UNC-51 CRISPR (C. elegans) (UniProt Q23023)
T1 sequence: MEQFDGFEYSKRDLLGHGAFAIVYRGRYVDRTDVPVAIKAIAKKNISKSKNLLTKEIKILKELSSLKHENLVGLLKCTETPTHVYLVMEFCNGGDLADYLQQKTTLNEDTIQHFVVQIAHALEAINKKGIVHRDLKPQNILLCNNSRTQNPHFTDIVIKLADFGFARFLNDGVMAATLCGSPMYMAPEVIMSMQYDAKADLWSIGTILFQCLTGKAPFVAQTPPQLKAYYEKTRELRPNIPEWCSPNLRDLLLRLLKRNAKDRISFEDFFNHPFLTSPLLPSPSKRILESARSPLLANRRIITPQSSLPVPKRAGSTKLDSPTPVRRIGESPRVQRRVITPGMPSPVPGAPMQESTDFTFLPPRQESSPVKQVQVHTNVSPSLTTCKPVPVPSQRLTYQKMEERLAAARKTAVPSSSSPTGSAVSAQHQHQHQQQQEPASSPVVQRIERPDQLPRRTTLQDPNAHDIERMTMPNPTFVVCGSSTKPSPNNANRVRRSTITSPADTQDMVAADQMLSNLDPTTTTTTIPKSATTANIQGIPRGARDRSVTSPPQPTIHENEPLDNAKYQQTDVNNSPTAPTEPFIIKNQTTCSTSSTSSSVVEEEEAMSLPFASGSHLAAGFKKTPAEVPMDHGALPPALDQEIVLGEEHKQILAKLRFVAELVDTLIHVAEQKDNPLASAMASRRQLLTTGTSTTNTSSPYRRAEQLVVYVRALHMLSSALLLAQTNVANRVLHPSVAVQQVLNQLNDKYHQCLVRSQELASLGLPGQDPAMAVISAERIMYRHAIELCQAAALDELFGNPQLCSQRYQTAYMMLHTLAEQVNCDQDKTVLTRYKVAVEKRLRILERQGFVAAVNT
Experiment: co-IP; whole-worm lysates of CRISPR strains (2.5 mg total protein), anti-FLAG (M2) or anti-GFP (3E6) antibody 30 min, then protein-G agarose 4 h at 4 °C; immunoblot with anti-FLAG or anti-GFP

binding: binds
Substance: RPM-1 LD::GFP CRISPR (from UniProt Q17551 1-3766) (enzyme)
